The other results are listed elsewhere or left out. Most values lie at the level of the controls, where differences are scatter.
Each target was assayed with CN[C@@H]1C[C@H]2O[C@@](C)([C@@H]1OC)n1c3ccccc3c3c4c(c5c6ccccc6n2c5c31)C(=O)NC4 [staurosporine] (assay: log2 fold change of pooled soluble protein (PISA), ligand vs vehicle (log2 ratio); higher = more thermally stabilized). Conditions: ligand concentration: 20 uM; assay format: PISA pool 52.9/55.5/58.6 C.

The chains behind the UniProt entries cited, without tags or fusion partners. Where a name states a change or a piece, a line headed by the entry shows the natural chain unless it says otherwise.
UniProt Q91WN4: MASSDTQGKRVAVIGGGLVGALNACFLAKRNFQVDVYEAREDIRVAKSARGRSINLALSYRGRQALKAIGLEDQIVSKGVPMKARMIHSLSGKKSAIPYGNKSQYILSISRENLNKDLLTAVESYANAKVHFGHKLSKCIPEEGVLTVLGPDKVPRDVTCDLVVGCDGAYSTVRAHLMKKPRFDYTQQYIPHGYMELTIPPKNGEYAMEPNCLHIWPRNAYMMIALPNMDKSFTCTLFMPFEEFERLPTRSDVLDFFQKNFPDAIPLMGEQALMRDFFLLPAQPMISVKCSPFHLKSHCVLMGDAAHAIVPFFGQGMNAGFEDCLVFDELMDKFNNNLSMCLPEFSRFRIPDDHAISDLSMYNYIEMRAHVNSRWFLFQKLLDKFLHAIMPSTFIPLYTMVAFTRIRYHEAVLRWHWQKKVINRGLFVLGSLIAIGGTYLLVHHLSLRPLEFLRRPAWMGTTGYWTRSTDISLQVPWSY
UniProt Q91WD5, whole entry: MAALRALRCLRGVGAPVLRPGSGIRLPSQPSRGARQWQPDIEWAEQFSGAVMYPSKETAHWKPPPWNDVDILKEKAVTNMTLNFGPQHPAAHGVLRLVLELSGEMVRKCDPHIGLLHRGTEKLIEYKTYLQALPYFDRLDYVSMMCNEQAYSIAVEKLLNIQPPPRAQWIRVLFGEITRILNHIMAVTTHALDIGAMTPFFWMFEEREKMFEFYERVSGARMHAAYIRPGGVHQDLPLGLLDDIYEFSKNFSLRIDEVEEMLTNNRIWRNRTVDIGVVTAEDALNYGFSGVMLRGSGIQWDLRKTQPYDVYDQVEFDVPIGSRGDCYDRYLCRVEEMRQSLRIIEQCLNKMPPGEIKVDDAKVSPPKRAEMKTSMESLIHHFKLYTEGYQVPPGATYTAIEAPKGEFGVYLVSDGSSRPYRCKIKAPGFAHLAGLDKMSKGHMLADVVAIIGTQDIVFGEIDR
UniProt Q8VE42: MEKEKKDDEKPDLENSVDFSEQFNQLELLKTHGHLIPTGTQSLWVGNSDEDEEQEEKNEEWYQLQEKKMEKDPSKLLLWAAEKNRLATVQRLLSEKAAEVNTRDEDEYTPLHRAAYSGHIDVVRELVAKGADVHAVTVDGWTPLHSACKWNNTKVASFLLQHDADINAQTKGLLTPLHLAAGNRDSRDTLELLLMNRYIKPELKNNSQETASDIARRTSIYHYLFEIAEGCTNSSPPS
UniProt Q8VE70: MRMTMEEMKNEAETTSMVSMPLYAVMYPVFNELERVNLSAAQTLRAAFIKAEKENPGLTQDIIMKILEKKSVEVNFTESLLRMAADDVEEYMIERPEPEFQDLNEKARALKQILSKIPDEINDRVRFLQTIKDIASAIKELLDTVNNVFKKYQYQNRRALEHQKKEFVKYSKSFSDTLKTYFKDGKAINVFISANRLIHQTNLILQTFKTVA
UniProt Q8VCU1: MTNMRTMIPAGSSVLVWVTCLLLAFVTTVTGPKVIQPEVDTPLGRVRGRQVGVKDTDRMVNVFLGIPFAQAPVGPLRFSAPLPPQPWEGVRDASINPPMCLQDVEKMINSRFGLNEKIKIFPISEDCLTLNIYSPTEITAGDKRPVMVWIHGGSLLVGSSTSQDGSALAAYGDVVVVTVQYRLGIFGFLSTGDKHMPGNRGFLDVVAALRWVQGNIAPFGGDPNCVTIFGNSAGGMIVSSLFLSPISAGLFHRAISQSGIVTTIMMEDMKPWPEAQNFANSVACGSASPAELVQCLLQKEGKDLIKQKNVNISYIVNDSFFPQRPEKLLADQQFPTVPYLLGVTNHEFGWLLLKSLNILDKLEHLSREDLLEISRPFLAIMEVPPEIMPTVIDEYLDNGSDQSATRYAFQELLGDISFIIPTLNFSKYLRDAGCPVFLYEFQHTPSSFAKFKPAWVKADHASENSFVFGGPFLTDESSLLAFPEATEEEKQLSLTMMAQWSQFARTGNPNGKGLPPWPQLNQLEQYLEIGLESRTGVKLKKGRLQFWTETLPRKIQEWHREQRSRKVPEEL
UniProt Q8VDM6: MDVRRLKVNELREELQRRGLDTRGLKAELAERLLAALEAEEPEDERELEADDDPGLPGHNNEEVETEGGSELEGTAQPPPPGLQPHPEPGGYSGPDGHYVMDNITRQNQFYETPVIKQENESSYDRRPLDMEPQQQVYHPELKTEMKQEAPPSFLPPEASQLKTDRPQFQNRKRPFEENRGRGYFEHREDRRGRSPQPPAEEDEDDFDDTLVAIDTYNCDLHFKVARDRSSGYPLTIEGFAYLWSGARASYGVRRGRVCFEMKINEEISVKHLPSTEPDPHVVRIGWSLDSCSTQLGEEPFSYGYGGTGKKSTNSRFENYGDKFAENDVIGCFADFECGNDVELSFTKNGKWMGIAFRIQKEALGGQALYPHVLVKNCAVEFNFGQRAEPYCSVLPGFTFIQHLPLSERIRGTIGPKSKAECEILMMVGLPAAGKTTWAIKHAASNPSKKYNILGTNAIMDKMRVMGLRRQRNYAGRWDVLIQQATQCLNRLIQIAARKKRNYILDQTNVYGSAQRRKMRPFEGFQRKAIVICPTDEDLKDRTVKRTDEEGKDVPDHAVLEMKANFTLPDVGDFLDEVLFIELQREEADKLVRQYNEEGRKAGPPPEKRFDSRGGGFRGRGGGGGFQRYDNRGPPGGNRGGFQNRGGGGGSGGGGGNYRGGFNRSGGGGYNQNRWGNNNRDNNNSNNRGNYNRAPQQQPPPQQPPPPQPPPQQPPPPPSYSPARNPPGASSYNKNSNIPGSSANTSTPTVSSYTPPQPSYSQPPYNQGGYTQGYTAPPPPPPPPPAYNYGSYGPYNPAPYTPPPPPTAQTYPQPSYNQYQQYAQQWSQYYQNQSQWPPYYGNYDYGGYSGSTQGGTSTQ
UniProt Q8VH51: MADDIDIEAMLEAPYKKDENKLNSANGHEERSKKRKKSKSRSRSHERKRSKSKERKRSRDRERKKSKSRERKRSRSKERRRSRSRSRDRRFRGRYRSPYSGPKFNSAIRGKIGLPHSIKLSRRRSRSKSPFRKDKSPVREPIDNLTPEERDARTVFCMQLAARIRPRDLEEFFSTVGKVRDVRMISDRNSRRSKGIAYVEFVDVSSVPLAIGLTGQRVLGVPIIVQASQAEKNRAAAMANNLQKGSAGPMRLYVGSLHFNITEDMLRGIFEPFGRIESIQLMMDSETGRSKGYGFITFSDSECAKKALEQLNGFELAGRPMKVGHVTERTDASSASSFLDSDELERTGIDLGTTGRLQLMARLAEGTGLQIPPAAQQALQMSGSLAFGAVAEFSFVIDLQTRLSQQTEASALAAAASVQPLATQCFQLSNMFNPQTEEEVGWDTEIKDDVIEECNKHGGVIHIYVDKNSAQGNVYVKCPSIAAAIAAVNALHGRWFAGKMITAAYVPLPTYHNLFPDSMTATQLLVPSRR
UniProt Q8VCX5: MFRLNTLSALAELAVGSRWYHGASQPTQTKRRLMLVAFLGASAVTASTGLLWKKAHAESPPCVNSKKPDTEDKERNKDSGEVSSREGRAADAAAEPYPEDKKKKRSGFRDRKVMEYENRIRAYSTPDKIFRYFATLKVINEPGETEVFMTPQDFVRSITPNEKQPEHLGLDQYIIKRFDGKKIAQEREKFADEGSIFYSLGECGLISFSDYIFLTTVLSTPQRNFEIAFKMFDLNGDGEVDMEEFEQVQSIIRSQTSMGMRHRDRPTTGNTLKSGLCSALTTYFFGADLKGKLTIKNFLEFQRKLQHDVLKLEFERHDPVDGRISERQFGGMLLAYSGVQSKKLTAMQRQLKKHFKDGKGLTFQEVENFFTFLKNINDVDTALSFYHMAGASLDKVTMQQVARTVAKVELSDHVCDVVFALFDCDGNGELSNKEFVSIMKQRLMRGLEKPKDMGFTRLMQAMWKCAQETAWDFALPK
UniProt Q8VDC1: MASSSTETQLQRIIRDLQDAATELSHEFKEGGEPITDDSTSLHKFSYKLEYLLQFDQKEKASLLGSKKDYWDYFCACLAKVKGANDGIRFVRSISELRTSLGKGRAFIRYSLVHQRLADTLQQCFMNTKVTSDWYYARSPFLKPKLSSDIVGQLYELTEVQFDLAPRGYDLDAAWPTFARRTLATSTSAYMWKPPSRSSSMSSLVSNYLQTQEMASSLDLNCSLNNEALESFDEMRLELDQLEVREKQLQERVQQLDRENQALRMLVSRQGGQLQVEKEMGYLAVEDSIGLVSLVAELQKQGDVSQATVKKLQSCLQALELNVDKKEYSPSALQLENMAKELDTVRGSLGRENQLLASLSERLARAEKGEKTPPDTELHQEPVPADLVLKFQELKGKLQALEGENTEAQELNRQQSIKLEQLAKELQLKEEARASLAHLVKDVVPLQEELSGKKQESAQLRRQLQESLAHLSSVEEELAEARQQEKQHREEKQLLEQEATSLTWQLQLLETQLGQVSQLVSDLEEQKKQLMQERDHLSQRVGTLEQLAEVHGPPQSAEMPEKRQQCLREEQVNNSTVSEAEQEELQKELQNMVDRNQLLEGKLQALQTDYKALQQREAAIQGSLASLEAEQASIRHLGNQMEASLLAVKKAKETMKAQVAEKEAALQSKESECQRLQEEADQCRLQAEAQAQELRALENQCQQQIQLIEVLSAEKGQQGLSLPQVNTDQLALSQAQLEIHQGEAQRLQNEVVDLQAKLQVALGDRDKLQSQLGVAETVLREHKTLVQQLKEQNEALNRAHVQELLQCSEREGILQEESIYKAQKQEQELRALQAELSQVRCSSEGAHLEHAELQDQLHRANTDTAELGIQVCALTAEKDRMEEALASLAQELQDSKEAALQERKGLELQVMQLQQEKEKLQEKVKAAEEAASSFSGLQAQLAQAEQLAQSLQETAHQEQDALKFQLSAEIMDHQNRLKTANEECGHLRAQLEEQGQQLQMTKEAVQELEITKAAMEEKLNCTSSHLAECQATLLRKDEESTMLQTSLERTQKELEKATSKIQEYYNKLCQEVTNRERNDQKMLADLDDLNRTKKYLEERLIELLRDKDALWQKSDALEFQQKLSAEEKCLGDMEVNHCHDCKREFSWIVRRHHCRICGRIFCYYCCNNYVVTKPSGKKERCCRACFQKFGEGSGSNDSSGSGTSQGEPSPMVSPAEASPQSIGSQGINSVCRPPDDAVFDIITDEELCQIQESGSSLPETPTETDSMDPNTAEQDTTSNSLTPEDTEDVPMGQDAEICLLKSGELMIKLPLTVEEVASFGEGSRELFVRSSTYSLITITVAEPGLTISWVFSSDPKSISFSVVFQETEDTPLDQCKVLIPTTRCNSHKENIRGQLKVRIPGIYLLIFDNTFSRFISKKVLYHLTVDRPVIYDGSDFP
UniProt Q8VEE0: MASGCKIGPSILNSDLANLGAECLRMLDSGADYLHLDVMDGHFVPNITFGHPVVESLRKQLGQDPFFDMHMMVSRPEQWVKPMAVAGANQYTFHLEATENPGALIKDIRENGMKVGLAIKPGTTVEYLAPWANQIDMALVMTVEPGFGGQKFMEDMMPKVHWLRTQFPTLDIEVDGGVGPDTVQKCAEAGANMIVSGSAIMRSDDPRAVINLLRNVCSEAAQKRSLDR
UniProt Q91YP3: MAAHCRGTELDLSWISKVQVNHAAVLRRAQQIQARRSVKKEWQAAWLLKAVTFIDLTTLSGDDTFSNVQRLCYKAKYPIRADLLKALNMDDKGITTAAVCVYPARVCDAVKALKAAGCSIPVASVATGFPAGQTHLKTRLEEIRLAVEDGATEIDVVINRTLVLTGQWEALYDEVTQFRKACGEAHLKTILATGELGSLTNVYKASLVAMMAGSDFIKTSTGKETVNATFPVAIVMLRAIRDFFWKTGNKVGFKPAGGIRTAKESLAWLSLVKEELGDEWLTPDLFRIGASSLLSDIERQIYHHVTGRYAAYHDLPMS
UniProt Q8VI36, whole entry: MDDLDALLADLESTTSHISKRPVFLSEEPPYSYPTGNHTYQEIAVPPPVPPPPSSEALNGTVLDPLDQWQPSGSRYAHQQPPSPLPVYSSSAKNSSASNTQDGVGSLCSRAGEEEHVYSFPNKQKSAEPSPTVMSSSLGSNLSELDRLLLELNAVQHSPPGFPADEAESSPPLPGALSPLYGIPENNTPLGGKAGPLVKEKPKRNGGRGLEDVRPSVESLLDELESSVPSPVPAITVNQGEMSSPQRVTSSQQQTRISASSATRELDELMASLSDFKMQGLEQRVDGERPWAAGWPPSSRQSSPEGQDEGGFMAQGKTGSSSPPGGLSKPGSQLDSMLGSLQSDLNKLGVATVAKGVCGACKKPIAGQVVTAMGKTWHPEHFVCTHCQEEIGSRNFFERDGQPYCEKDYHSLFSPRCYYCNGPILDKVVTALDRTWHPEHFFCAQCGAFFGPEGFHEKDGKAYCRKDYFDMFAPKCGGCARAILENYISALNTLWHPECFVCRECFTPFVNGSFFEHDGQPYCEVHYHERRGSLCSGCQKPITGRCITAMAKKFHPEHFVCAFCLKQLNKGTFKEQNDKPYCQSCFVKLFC
UniProt Q8VCR3: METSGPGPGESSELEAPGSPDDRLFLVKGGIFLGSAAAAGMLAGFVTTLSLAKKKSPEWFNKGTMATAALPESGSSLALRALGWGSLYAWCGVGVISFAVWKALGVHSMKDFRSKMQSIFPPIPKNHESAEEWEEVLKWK

| Target | log2 fold change of pooled soluble protein |
| --- | --- |
| UniProt Q91WN4 | 0.0245 |
| UniProt Q91W18 | -0.128 |
| UniProt Q91WD5 | 0.00549 |
| UniProt Q91X21 | 0.379 |
| UniProt Q8VCZ9 | -0.1 |
| UniProt Q8VHE0 | -0.0439 |
| UniProt Q921F4 | -0.185 |
| UniProt Q91VC3 | 0.0631 |
| UniProt Q922U1 | -0.109 |
| UniProt Q8VE42 | 0.187 |
| UniProt Q99020 | 0.174 |
| UniProt Q8VHR5 | 0.0999 |
| UniProt Q8VE70 | 0.122 |
| UniProt Q91YP2 | 0.0498 |
| UniProt Q8VCU1 | -0.0556 |
| UniProt Q923B6 | 0.0362 |
| UniProt Q99JB2 | -0.0554 |
| UniProt Q8WUR0 | -0.0646 |
| UniProt Q8VDM6 | -0.0974 |

| Target | log2 fold change of pooled soluble protein |
| --- | --- |
| UniProt Q8VH51 | -0.0129 |
| UniProt Q8VCX5 | -0.14 |
| UniProt Q8VDC1 | -0.0808 |
| UniProt Q8VEE0 | -0.153 |
| UniProt Q8VEK3 | -0.121 |
| UniProt Q91VR2 | -0.0543 |
| UniProt Q91V64 | -0.174 |
| UniProt Q921H8 | 0.0826 |
| UniProt Q925N2 | -0.0207 |
| UniProt Q91YP3 | -0.153 |
| UniProt Q921M3 | -0.0928 |
| UniProt Q8VI36 | -0.0626 |
| UniProt Q91VM5 | 0.000474 |
| UniProt Q8VCR3 | 0.095 |
| UniProt Q99J36 | -0.0971 |
| UniProt Q91WC0 | -0.0145 |
| UniProt Q8WTY4 | 0.141 |
| UniProt Q91VU0 | -0.0861 |
| UniProt Q91YI0 | 0.0279 |

As a working copy, some entries already given.

| Target | log2 fold change of pooled soluble protein |
| --- | --- |
| UniProt Q8VDC1 | -0.0808 |
| UniProt Q8VEE0 | -0.153 |
| UniProt Q8VEK3 | -0.121 |
| UniProt Q91VR2 | -0.0543 |
| UniProt Q91V64 | -0.174 |
| UniProt Q921H8 | 0.0826 |
| UniProt Q925N2 | -0.0207 |
| UniProt Q91YP3 | -0.153 |
| UniProt Q921M3 | -0.0928 |
| UniProt Q8VI36 | -0.0626 |
| UniProt Q91VM5 | 0.000474 |
